Results published in the supplement of paper PMC3334620.
Whole data set: some 33,000 sequences, median “E-score (-0.5 to 0.5)” near -0.015, cut for the highest 2% near 0.3. The list shows a part of the results.

Molecular target: T1, Abf1 (UniProt P14164)
T1 sequence: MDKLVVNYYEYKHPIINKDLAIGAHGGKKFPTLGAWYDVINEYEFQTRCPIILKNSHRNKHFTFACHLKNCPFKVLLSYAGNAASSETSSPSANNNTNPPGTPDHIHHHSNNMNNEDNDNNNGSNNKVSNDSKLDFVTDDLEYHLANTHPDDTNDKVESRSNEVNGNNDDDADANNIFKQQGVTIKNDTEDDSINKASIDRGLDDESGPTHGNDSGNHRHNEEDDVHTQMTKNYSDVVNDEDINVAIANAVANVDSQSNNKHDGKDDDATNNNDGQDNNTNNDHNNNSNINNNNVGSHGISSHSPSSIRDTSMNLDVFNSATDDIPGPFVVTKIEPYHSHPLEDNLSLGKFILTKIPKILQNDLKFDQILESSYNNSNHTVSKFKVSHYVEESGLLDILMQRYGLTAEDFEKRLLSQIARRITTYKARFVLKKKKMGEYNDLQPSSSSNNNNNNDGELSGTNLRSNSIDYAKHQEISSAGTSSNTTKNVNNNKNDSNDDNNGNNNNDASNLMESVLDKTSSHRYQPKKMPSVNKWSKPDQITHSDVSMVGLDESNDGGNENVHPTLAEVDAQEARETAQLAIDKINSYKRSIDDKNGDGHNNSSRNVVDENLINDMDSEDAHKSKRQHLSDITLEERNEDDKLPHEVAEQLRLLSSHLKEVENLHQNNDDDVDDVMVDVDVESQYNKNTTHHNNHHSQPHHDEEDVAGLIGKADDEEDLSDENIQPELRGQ
Experiment: PBM E-score (8-mer binding enrichment) (E-score (-0.5 to 0.5)); higher = stronger / more preferred TF binding
Conditions: protein concentration: 200 nM; construct: GST-full length
Outline: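 The E-score, a modified Wilcoxon-Mann-Whitney statistic, was computed by the Universal PBM Analysis Suite for every ungapped eight-base word pooled with its reverse complement. Scans behind it were normalised with masliner after bound GST-tagged yeast transcription factors were detected with fluorescent anti-GST. The proteins, at about 100-200 nM, had been applied to universal all-10-mer Agilent arrays made double-stranded by primer extension.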

Sequence | PBM E-score
CCTTTAAG | -0.0765
ACCGGCGG | -0.133
ACGCCCGA | -0.183
CGAAAAAG | 0.146
AAAATTTA | 0.0232
GCATCAAC | -0.133
CCTGTAAG | -0.128
ACTTCCCA | 0.0193
CCGTAACA | 0.118
CGGCTGGC | -0.243
GCGAAAGC | -0.15
AGTACAGG | -0.0351
ATAATGTC | 0.162
AGCATTTG | -0.115
AAAGAAGG | -0.118
ACCAGGGA | -0.0651
CCGGGGAG | -0.0831
AATCAAGT | -0.0747
ACTAGAAT | 0.0333
AACTATGT | 0.0381
ATGTAAGA | 0.142
ATTTGTCA | 0.292
ACACGACG | 0.13
ACTTCCAA | -0.121
ATGCACAT | 0.0932

Sequence | PBM E-score
CAAACCGC | -0.0591
ACGCGCAA | -0.0721
GTGACTCA | -0.0193
ACCACCTG | -0.0958
GCAGTCAC | 0.0632
AAGGGCTC | -0.327
CGATGCCA | -0.286
CACTCATA | 0.202
AATTGTTG | 0.0148
GATAAAGA | 0.13
ACAGATTG | -0.0933
CAAAGTAA | -0.0698
ACCCTTCG | -0.0702
ACTTCAAA | 0.012
AATTTGGA | -0.0236
CGATATAA | 0.203
AGAATTGG | -0.0124
CCGGAAAA | -0.0541
CCATCCGG | -0.186
ACCAATGC | -0.142
CTACACAG | -0.176
GTAGGCAC | -0.174
ACTTTCGG | -0.281
AACGATTC | 0.163
CAAGTCGG | -0.215

Sequence | PBM E-score
ACTACAGG | -0.0838
CAGAGGGC | -0.202
ACTCGGAC | -0.0217
ATGACGAA | 0.319
CTACCAGC | -0.151
CCGTGGGC | 0.0205
AGCCAGTC | -0.198
AGAAGCGG | -0.235
ACTAAGCT | 0.191
AGACTGCC | -0.109
CACCACCG | -0.112
AGTATGAA | 0.135
AGTTTGAG | -0.00798
GGCCGTGA | 0.253
ATAGGGGA | -0.0124
GCAGTCGC | -0.0675
CTTATAGC | 0.0906
CATCCAAC | 0.0408
AGGTACCC | -0.287
ATATGCGC | 0.176
ATATCATA | 0.33
GACGTTGC | 0.106
ATGAGGCA | -0.193
TAGCTAGA | 0.133
AAGTACGG | 0.181

Sequence | PBM E-score
AACCCGGG | -0.24
GAGGGTGA | 0.137
AAGTCCCC | -0.149
CATAGTAG | 0.0339
CTATGAGC | -0.0109
CAAACTTG | -0.183
CAATGCTC | -0.0352
ATTGTAAG | -0.194
CGGCACCG | -0.0847
AATGCCGC | 0.029
CACGACTC | 0.128
GAACAACC | -0.0257
CTTGCTTA | -0.0929
ATCCACCA | -0.0729
CAAGAGCA | -0.279
CCACGCAA | 0.0526
GAAGAGCA | -0.194
ACGCGCAC | -0.0254
TCAACAAA | 0.0431
AACACATA | 0.0739
GTGCCTGA | -0.13
GAAAAGGC | -0.0258
TACACCGA | -0.287
AACCCGGT | -0.0159
ATATGCCA | 0.162

Sequence | PBM E-score
AAACGATG | 0.291
ATATGGGC | 0.0186
TAGCTGCA | -0.105
ACACGGTA | 0.16
ACAACGGT | 0.0626
AATCCTGC | -0.14
TACAGATA | 0.0671
AAAGAGAT | -0.0264
CCACCGAC | -0.307
TAGTTGGA | -0.199
TCGGCTAA | 0.0367
AGACGGTA | -0.0476
AGAATGAA | 0.144
ACTCGAGT | -0.0159
CACCCAGC | -0.252
AACCCGTT | -0.16
GCTCAGAC | -0.189
AATTGGGG | -0.161
AAAACGGG | 0.157
AGGCAGCC | -0.22
CGCCTCCC | -0.333
GAAGCTCA | 0.0423
CCAGAGCA | -0.0849
ACGATTAC | 0.177
GATTAGGC | 0.18

Reformatted as tab-separated lines: part of the list above.
Sequence	PBM E-score
TCGGCTAA	0.0367
AGAATGAA	0.144
AAAACGGG	0.157
CGCCTCCC	-0.333

Carrying on:

Sequence | PBM E-score
CATGGCCA | -0.0361
CGGATACA | -0.0953
AATTGACG | -0.00347
CCTTAACC | -0.08
CCGCATCA | -0.0404
GTTACGCA | 0.0674
CAGTGGAA | -0.0893
CAGTACCA | -0.0538
AGATCCTG | 0.0554
CTTCCTCA | -0.161
AATTGATA | 0.22
ATGACACA | 0.266
AGCGGGAA | 0.13
CCCCTCTC | -0.242
ATGATCGC | 0.0946
CAGTTAGA | 0.0104
ATTCGTAA | 0.203
GATACCGC | -0.115
ATCATGTA | 0.208
CGTCACAA | 0.159
CGAGACCA | -0.00853
ATGTCATG | 0.349
TATACACA | -0.00989
GCAAGCAC | -0.0888
AAGAACTC | -0.031

Sequence | PBM E-score
GCCTGAGA | -0.266
CTAAGGTC | -0.203
GGACGAGA | 0.145
CATGGGCG | 0.0639
ATTCTATA | 0.026
TCCTATCA | 0.194
ATACGCTG | 0.0755
ACAAAATG | 0.0785
GGTAGCGA | 0.171
CTCGTTCC | -0.0442
CTACAAGC | -0.222
AACTGGCG | -0.114
CGAGGGAC | -0.189
CTACCTAG | -0.113
AAGGTAAT | 0.201
CTAAGCCC | -0.19
GATGTCGA | 0.157
CGATCGTA | 0.252
CTGCCCTA | -0.132
AAGAATGG | -0.136
TAGGAGCA | -0.0585
AATATTTC | 0.14

Random excerpt: two records from the list.
Sequence | PBM E-score
GAAAAGGC | -0.0258
CTACACAG | -0.176
